From patent US20110105389A1 (priority 2009, published 2011)
For at least one compound, name, drawing or mass did not settle the structure.

Test system: Caco-2 cells
Experiment: Caco-2 permeability, Method B7
Type: in vitro ADME, human
Conditions: Caco-2, 10 μM, with P-gp inhibitor (Cyclosporin A)
Text: B7. Determination of Caco-2 Permeability
The Caco-2 cell line, derived from a human colorectal carcinoma, has become an established in vitro model for the prediction of drug absorption across the human intestine. (Sun, D.; Yu, L. X.; Hussain, M. A.; Wall, D. A.; Smith, R. L.; Amidon, G. L. Curr. Opin. Drug Discov. Devel. 2004, 7, 75-85; Bergstrom, C. A. Basic Clin. Pharmacol. Toxicol. 2005, 96, 156-61; Balimane, P. V.; Han, Y. H.; Chong, S. AAPS J. 2006, 8, E1-13; Shah, P.; Jogani, V.; Bagchi, T.; Misra, A. Biotechnol. Prog. 2006, 22, 186-198.) When cultured on semi-permeable membranes, Caco-2 cells differentiate into a highly functionalized epithelial barrier with remarkable morphological and biochemical similarity to the small intestinal columnar epithelium. Fully differentiated cell monolayers can be used to assess the membrane transport properties of novel compounds.
Assays to determine the permeability of compounds of the invention utilizing Caco-2 cells are commercially available, for example NoAb BioDiscoveries (Mississaugua, ON, Canada) and Absorption Systems (Exton, Pa., USA).
Permeability across the Caco-2 cell layer was determined by growing the cells on a membrane placed between two (donor and acceptor) chambers. Drug candidates are typically added to the apical (A) side of the cell layer and their appearance in the basolateral (B) side is measured over incubation time. Permeability in this direction represents intestinal absorption. Permeability may also be determined from the basolateral to the apical side of the Caco-2 cell. […]
Permeability (10 μM) for compounds of the invention in the apical to basolateral and basolateral to apical direction were tested in duplicate. […] Samples for each test compound generated from the Caco-2 permeability assay were further analyzed by LC-MS-MS. The permeability of [^3H]-mannitol and [^3H]-propranolol were determined in parallel as controls.
The permeability coefficient (Papp) of each compound and radiolabeled standard was determined using the following equation: […]
where dQ/dT represents the permeability rate, Ci denotes the initial concentration in the donor compartment, and A represents the surface area of the filter. Ci is determined from the mean concentration of duplicate samples taken prior to addition to the donor compartment. Permeability rates were calculated by plotting the cumulative amount of compound measured in the acceptor compartment over time and determining the slope of the line by linear regression analysis. […]

SMILES | A to B Mean Papp [×10⁻⁶ cm/s] | B to A Mean Papp [×10⁻⁶ cm/s]
CC(C)[C@@H]1NCC2CCc3cccc(c3O2)CCCNC(=O)[C@@H](Cc2ccccc2)NC(=O)[C@H](C(C)O)N(C)C1=O (stereo partly shown) [Compound 1777] | 5.02e+12 | 9.94e+12
CC(C)[C@@H]1NCCOc2ccccc2C2CCC(C2)NC(=O)[C@@H](Cc2c[nH]c3ccccc23)NC(=O)[C@H](C(C)O)N(C)C1=O (stereo partly shown) [Compound 1843] | 7.27e+11 | 9.78e+12
